# Laboratory results from the supplement of paper PMC8728848.
# The list shows a part of the results.
# B1: PX9961M-bvu-482-23-482 (Bacteroides vulgatus) (protein)
# chain: WLDLAPSTQVDTETSINVLSDIEFTLNGIYSTMQSSDAYSGRLVYYGDVTGDDMQAVSSTKRTGNYYRFNFTKDNGPSSHWSYLYSIIQNCNLILMNVDKLSIDEDETEYKNDLKGQALAIRGMALFDLTRIFGYPYLKDNGASLGVPIVKELSTIDSKPARNTVAECYTEIISDLKNSTELLSGDFNKGKVNRWAAMTLLSRVYLYKGEYNEALTMAENAIKGAEKEGYALWTNEEYPTAWGNDASASNPGEILFEIVNLTTDSPGKESMGYLNSYNGYDDMCITCSFYQLLKKDPKDVRLKILSFDKKYYAYVNKYQPQQGENITDANIPLIRLSEAYLNAAEAAVQTGDNAKAVKYLNSIVQRANPENSVEGKTLTLENVLDERRKELVAEGHRMYDVIRNGMTVKRIDVKDSDINKTKHNTAYMEYDWNFHKILLPIPKKEMDANPNMKQNPGYVD
# Legend:
# Assay in all cases: glycan array binding signal (z-score within array); higher = stronger binding
# Settings in all cases: glycan notation: IUPAC condensed, linker removed
# Gal3S(b1-4)Glc = target: Gal3S(b1-4)Glc
# Method in brief: (§1)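 Glycan array data were curated from 3228 arrays in the Consortium for Functional Glycomics database and kept only where the protein sequence was available. Glycan names were converted to IUPAC-condensed notation, and columns mapping to the same glycan were averaged. The binding signal is a within-array Z-score, averaged across arrays of the same protein sequence at different concentrations or buffers and across linkers. Negative Z-scores can be read as non-binding.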
# Gal3S(b1-4)Glc6S = target: Gal3S(b1-4)Glc6S
# Method in brief: as §1
# Gal3S(b1-4)GlcNAc = target: Gal3S(b1-4)GlcNAc
# Method in brief: as §1
# [1] = target: Gal3S(b1-4)[Fuc(a1-3)]Glc6S
# Method in brief: as §1
# [2] = target: Gal3S(b1-4)[Fuc(a1-3)]GlcNAc
# Method in brief: as §1
# [3] = target: Gal3S(b1-4)[Fuc(a1-3)]GlcNAc6S
# Method in brief: as §1
# Gal3S4S(b1-4)GlcNAc = target: Gal3S4S(b1-4)GlcNAc
# Method in brief: as §1
# Gal3S6S(b1-4)GlcNAc = target: Gal3S6S(b1-4)GlcNAc
# Method in brief: as §1
# Gal3S6S(b1-4)GlcNAc6S = target: Gal3S6S(b1-4)GlcNAc6S
# Method in brief: as §1
# Gal4S(b1-4)GlcNAc = target: Gal4S(b1-4)GlcNAc
# Method in brief: as §1
# Gal4S6S(b1-4)GlcNAc = target: Gal4S6S(b1-4)GlcNAc
# Method in brief: as §1
# Gal6P(b1-4)GlcNAc = target: Gal6P(b1-4)GlcNAc
# Method in brief: as §1
# Gal6S(b1-3)GlcNAc = target: Gal6S(b1-3)GlcNAc
# Method in brief: as §1
# Gal6S(b1-3)GlcNAc6S = target: Gal6S(b1-3)GlcNAc6S
# Method in brief: as §1
# Gal6S(b1-4)Glc = target: Gal6S(b1-4)Glc
# Method in brief: as §1
# Gal6S(b1-4)Glc6S = target: Gal6S(b1-4)Glc6S
# Method in brief: as §1
# Gal6S(b1-4)GlcNAc = target: Gal6S(b1-4)GlcNAc
# Method in brief: as §1
# Gal6S(b1-4)GlcNAc6S = target: Gal6S(b1-4)GlcNAc6S
# Method in brief: as §1
# GalNAc(a1-3)Gal = target: GalNAc(a1-3)Gal
# Method in brief: as §1
# GalNAc(a1-3)GalNAc = target: GalNAc(a1-3)GalNAc
# Method in brief: as §1
# [4] = target: GalNAc(a1-3)GalNAc(b1-3)Gal(a1-4)Gal(b1-4)Glc
# Method in brief: as §1
# [5] = target: GalNAc(a1-3)GalNAc(b1-3)Gal(a1-4)Gal(b1-4)GlcNAc
# Method in brief: as §1
# GalNAc(b1-3)Gal = target: GalNAc(b1-3)Gal
# Method in brief: as §1
# [6] = target: GalNAc(b1-3)Gal(a1-4)Gal(b1-4)GlcNAc
# Method in brief: as §1
# [7] = target: GalNAc(b1-3)Gal(a1-4)Gal(b1-4)GlcNAc(b1-3)Gal(b1-4)Glc
# Method in brief: as §1
# [8] = target: GalNAc(b1-3)Gal(a1-6)Gal(b1-4)Glc
# Method in brief: as §1
# GalNAc(b1-3)GalNAc = target: GalNAc(b1-3)GalNAc
# Method in brief: as §1
# GalNAc(b1-3)GlcNAc = target: GalNAc(b1-3)GlcNAc
# Method in brief: as §1
# GalNAc(b1-4)Gal(b1-4)Glc = target: GalNAc(b1-4)Gal(b1-4)Glc
# Method in brief: as §1
# GalNAc(b1-4)GlcNAc = target: GalNAc(b1-4)GlcNAc
# Method in brief: as §1
# [9] = target: GalNAc(b1-4)GlcNAc(b1-2)Man
# Method in brief: as §1
# [10] = target: GalNAc(b1-4)GlcNAc(b1-2)Man(a1-3)[GalNAc(b1-4)GlcNAc(b1-2)Man(a1-6)]Man(b1-4)GlcNAc(b1-4)GlcNAc
# Method in brief: as §1
# [11] = target: GalNAc(b1-4)GlcNAc(b1-3)GalNAc(b1-4)GlcNAc
# Method in brief: as §1
# GalNAc(b1-4)GlcNAc6S = target: GalNAc(b1-4)GlcNAc6S
# Method in brief: as §1
# GalNAc(b1-6)GalNAc = target: GalNAc(b1-6)GalNAc
# Method in brief: as §1
# GalNAc3S(b1-4)GlcNAc = target: GalNAc3S(b1-4)GlcNAc
# Method in brief: as §1
# GalNAc3S(b1-4)GlcNAc3S = target: GalNAc3S(b1-4)GlcNAc3S
# Method in brief: as §1
binder,measurement,setting,value
B1,glycan array binding signal (z-score),Gal3S(b1-4)Glc,-0.19
same,glycan array binding signal (z-score),Gal3S(b1-4)Glc6S,0.344
same,glycan array binding signal (z-score),Gal3S(b1-4)GlcNAc,0.151
same,glycan array binding signal (z-score),[1],1.08
same,glycan array binding signal (z-score),[2],0.751
same,glycan array binding signal (z-score),[3],0.037
same,glycan array binding signal (z-score),Gal3S4S(b1-4)GlcNAc,0.382
same,glycan array binding signal (z-score),Gal3S6S(b1-4)GlcNAc,0.337
same,glycan array binding signal (z-score),Gal3S6S(b1-4)GlcNAc6S,0.726
same,glycan array binding signal (z-score),Gal4S(b1-4)GlcNAc,-1.02
same,glycan array binding signal (z-score),Gal4S6S(b1-4)GlcNAc,-0.475
same,glycan array binding signal (z-score),Gal6P(b1-4)GlcNAc,-0.201
same,glycan array binding signal (z-score),Gal6S(b1-3)GlcNAc,0.375
same,glycan array binding signal (z-score),Gal6S(b1-3)GlcNAc6S,0.068
same,glycan array binding signal (z-score),Gal6S(b1-4)Glc,-0.175
same,glycan array binding signal (z-score),Gal6S(b1-4)Glc6S,-0.529
same,glycan array binding signal (z-score),Gal6S(b1-4)GlcNAc,0.962
same,glycan array binding signal (z-score),Gal6S(b1-4)GlcNAc6S,-0.084
same,glycan array binding signal (z-score),GalNAc(a1-3)Gal,0.322
same,glycan array binding signal (z-score),GalNAc(a1-3)GalNAc,0.474
same,glycan array binding signal (z-score),[4],-0.666
same,glycan array binding signal (z-score),[5],-1.08
same,glycan array binding signal (z-score),GalNAc(b1-3)Gal,-0.595
same,glycan array binding signal (z-score),[6],-0.185
same,glycan array binding signal (z-score),[7],-0.563
same,glycan array binding signal (z-score),[8],-0.694
same,glycan array binding signal (z-score),GalNAc(b1-3)GalNAc,-0.1
same,glycan array binding signal (z-score),GalNAc(b1-3)GlcNAc,-0.203
same,glycan array binding signal (z-score),GalNAc(b1-4)Gal(b1-4)Glc,-0.195
same,glycan array binding signal (z-score),GalNAc(b1-4)GlcNAc,0.545
same,glycan array binding signal (z-score),[9],-0.411
same,glycan array binding signal (z-score),[10],0.193
same,glycan array binding signal (z-score),[11],-0.527
same,glycan array binding signal (z-score),GalNAc(b1-4)GlcNAc6S,-0.209
same,glycan array binding signal (z-score),GalNAc(b1-6)GalNAc,-0.01
same,glycan array binding signal (z-score),GalNAc3S(b1-4)GlcNAc,-0.614
same,glycan array binding signal (z-score),GalNAc3S(b1-4)GlcNAc3S,-0.147

# A section from the list above, as a working copy:
binder,measurement,setting,value
B1,glycan array binding signal (z-score),[2],0.751
same,glycan array binding signal (z-score),[3],0.037
same,glycan array binding signal (z-score),Gal3S4S(b1-4)GlcNAc,0.382
same,glycan array binding signal (z-score),Gal3S6S(b1-4)GlcNAc,0.337
same,glycan array binding signal (z-score),Gal3S6S(b1-4)GlcNAc6S,0.726
same,glycan array binding signal (z-score),Gal4S(b1-4)GlcNAc,-1.02
same,glycan array binding signal (z-score),Gal4S6S(b1-4)GlcNAc,-0.475
